Measurements from article PMC4420602.
These are yes or no findings as the source states them, for the method shown. Binding seen in cells or lysates may run through a third protein. Some binding calls cover weakened binding; strength is not graded here.

The chains behind the UniProt entries cited, without tags or fusion partners.
UniProt P49185: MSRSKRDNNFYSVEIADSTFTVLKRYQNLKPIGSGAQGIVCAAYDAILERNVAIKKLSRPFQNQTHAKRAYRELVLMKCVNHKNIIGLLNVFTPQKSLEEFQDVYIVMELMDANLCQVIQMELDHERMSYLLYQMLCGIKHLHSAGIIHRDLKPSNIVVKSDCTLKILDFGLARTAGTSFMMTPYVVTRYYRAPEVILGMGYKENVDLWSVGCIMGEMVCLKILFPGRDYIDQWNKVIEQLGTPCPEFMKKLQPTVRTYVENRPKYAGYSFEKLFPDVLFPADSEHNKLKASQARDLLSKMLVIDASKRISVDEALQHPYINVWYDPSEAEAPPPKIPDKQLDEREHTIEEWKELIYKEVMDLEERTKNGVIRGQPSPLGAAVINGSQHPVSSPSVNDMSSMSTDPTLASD

Target: T1, DJ1 (rat (endogenous in Sprague-Dawley rat liver)) (UniProt O88767)
T1 sequence: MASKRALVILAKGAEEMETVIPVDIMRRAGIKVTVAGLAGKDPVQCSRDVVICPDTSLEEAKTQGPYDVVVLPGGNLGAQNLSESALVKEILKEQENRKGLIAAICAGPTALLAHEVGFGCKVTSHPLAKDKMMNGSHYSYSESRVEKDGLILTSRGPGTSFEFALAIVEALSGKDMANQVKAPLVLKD
Assay: co-IP; tissue lysates incubated with anti-DJ1 antibody or normal mouse IgG at 4°C overnight, protein A/G agarose beads; immunoblot with monoclonal mouse anti-JNK1 antibody

For JNK1 (from UniProt P49185 1-411), the binding was “binds”.
